Data from the M2OR odorant receptor database.
This is a selection; strong and weak results do not stand in their true shares. Calls are pooled over several reports, among them a noisy single-well screen. Some of the results follow.

What was measured:
Conditions in all cases: stereoisomer not certain
OR4K3 = system: T1, OR4K3
T1 sequence (whole entry): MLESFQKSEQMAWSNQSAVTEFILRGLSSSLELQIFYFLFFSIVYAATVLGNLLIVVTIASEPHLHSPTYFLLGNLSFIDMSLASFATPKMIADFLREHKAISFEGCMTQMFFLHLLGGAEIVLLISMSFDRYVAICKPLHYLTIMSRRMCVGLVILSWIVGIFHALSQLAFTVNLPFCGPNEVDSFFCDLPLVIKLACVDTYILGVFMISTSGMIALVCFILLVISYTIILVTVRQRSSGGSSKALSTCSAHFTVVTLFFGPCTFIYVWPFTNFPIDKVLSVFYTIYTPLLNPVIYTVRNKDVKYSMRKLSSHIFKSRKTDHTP
Procedure, shortened: (§1)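 Values were gathered from published papers (main text and supplementary material), with extra details requested from the original authors when needed, and checked for typos and inconsistencies. Each receptor–molecule pair is called responsive (active) if the original authors judged the measured signal statistically different from baseline, and non-responsive (inactive) otherwise. Assay methods varied by source, often transient mammalian cell-line luciferase assays. Recorded details include cell line, G-protein, co-transfected protein and tags.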

OR4K5 (Homo sapiens) = target: T2, OR4K5 (Homo sapiens) (UniProt Q8NGD3)
T2 sequence (whole entry): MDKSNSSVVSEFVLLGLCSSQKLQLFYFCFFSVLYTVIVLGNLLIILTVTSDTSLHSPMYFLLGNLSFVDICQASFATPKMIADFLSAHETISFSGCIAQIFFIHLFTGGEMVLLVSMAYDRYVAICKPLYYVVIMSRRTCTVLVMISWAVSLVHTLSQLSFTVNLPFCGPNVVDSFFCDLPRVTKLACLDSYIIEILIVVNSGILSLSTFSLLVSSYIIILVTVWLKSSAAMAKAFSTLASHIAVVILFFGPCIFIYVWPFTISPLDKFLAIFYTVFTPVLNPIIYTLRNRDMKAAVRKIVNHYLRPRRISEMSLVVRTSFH
Procedure, shortened: as §1

OR4KF = system: T3, OR4KF
T3 sequence (whole entry): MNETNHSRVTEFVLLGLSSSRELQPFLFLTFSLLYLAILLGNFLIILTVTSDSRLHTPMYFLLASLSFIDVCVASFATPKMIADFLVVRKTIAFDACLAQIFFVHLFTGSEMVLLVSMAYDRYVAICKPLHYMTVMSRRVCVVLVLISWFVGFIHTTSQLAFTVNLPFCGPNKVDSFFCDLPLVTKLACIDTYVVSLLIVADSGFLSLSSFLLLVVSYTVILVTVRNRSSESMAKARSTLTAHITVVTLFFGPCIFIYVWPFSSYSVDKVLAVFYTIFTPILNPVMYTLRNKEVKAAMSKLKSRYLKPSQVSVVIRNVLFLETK
Procedure, shortened: as §1

OR4KH = system: T4, OR4KH
T4 sequence (whole entry): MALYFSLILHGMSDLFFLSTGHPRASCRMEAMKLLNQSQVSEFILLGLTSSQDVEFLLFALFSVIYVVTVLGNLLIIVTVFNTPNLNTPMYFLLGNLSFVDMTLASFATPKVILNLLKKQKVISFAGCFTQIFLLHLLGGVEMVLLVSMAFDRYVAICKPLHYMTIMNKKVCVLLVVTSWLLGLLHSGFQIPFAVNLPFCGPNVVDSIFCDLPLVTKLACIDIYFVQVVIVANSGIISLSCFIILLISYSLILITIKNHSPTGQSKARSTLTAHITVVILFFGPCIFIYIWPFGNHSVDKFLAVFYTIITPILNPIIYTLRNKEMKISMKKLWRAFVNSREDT
Procedure, shortened: as §1

OR4L1 = system: T5, OR4L1
T5 sequence (whole entry): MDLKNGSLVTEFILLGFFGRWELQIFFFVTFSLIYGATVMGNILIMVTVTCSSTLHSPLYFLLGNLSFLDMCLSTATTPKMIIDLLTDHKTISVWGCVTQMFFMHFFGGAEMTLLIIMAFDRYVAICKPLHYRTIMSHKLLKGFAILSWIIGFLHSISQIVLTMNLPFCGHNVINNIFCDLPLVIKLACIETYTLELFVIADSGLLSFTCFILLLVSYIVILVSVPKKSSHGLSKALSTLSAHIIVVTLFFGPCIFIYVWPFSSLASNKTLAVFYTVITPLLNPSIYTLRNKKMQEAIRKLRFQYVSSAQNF
Procedure, shortened: as §1

OR4M1 (Homo sapiens) = target: T6, OR4M1 (Homo sapiens) (UniProt Q8NGD0)
T6 sequence (whole entry): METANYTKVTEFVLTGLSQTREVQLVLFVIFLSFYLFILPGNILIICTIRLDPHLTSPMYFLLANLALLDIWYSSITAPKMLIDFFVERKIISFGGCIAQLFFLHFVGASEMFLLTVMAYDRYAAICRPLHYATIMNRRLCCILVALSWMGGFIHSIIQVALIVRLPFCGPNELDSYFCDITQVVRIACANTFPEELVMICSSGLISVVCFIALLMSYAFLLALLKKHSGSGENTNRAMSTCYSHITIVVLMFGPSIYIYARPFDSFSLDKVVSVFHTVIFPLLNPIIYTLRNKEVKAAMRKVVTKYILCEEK
Procedure, shortened: as §1

OR4N2 (Homo sapiens) = target: T7, OR4N2 (Homo sapiens) (UniProt Q8NGD1)
T7 sequence (whole entry): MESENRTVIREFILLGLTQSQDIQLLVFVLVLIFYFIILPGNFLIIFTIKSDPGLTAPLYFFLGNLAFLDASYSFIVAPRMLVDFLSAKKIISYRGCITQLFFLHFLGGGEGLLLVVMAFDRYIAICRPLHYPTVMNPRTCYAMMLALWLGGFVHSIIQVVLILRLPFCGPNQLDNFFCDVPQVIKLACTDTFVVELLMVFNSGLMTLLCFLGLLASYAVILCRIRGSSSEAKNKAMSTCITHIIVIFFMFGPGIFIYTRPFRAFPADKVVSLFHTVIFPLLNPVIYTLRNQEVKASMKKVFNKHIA
Procedure, shortened: as §1

OR4N4 (Homo sapiens) = target: T8, OR4N4 (Homo sapiens) (UniProt Q8N0Y3)
T8 sequence (whole entry): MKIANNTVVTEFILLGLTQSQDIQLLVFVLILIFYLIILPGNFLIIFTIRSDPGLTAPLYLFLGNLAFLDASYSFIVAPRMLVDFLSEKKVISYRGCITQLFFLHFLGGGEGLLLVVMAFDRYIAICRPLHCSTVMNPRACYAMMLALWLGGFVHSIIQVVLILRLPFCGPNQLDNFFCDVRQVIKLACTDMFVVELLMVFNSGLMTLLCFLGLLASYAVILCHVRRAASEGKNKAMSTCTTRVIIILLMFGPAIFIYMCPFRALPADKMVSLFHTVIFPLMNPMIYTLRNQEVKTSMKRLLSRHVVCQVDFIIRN
Procedure, shortened: as §1

OR4N5 (Homo sapiens) = target: T9, OR4N5 (Homo sapiens) (UniProt Q8IXE1)
T9 sequence (whole entry): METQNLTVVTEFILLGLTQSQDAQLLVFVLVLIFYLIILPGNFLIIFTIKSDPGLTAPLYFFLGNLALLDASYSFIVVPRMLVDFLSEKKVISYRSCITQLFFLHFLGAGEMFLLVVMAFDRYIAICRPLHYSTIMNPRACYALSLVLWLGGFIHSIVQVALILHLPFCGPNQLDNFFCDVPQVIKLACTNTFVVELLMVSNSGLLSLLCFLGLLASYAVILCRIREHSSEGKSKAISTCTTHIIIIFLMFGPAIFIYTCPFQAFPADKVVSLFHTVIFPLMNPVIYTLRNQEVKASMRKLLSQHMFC
Procedure, shortened: as §1

OR4P4 [1] = system: T10, OR4P4
T10 sequence (whole entry): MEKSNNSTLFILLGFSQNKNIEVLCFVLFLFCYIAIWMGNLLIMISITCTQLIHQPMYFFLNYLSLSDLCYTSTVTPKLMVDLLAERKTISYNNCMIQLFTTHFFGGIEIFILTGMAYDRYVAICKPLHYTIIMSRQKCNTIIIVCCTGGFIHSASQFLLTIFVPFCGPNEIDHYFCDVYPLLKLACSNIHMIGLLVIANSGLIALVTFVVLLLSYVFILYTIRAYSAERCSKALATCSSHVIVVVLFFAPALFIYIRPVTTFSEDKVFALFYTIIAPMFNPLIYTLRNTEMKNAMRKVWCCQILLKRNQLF
Procedure, shortened: as §1

OR4P4 [2] = system: T11, OR4P4; remark: listed apart in the source
T11 sequence (whole entry): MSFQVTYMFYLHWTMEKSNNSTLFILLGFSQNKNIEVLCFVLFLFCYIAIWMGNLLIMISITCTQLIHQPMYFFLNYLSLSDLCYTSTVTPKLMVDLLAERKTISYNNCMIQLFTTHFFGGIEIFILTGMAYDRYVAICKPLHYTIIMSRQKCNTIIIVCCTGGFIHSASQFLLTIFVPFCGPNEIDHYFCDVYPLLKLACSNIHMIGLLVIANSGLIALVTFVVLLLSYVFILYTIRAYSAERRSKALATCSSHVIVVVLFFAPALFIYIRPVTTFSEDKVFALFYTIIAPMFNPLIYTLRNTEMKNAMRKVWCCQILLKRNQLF
Procedure, shortened: as §1

OR4Q3 (Homo sapiens) = target: T12, OR4Q3 (Homo sapiens) (UniProt Q8NH05)
T12 sequence (whole entry): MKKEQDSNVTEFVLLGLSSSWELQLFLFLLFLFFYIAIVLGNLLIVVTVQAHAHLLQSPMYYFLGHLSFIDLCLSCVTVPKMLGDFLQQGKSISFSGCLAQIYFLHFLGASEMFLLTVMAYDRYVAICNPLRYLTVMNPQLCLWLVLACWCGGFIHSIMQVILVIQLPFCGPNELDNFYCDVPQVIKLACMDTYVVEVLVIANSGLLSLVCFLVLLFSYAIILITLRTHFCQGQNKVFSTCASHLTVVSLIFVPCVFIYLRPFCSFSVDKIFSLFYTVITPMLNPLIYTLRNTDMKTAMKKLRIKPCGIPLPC
Procedure, shortened: as §1

OR4S1 (Homo sapiens) = target: T13, OR4S1 (Homo sapiens) (UniProt Q8NGB4)
T13 sequence (whole entry): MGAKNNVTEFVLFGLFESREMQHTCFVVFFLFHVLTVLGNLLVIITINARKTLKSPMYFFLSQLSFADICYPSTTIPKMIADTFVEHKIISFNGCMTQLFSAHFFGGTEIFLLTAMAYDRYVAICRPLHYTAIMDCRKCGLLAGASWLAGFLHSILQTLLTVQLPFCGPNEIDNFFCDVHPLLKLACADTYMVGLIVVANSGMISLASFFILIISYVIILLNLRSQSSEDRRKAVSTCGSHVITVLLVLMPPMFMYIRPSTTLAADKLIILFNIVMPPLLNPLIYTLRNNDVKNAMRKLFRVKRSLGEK
Procedure, shortened: as §1

Measured: odorant receptor agonist call

CC(=O)OC1CC2CCC1(C)C2(C)C (stereo not drawn)
inactive: all assays above

CC12CCC(C1)C(C)(C)C2=O (stereo not drawn)
inactive: all assays above

CCCCCOC(C)=O
inactive: all assays above

CCCCCCOC(=O)CCC
inactive: all assays above

Copied from the entries so far (two entries):
CCCCCOC(C)=O
inactive: all assays above

CCCCCCOC(=O)CCC
inactive: all assays above

Carrying on:

CC(C)CC(=O)O
inactive: all assays above

C=CC(C)(O)CCC=C(C)C (stereo not drawn)
inactive: all assays above
